Source: PubChem BioAssay AID1159578 (Peter MacCallum Cancer Centre, 2015)

Aim: 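Genome-wide hunt for genes controlling movement of lymphatic endothelial cells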 (primary screen)
Cells: human lymphatic endothelial cells
Reagents: siRNA pool against human genes, 40 nM
Time to read-out: 48 h after transfection
Measurement: 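Cells stained with dye and imaged after a scratch; covered wound area and nuclei counted, duplicates averaged, migration set against mock wells and turned into a robust z-score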
Direction: migration robust z-score: higher = faster migration into the scratch; nuclei per well: higher = more cells in the well
Call rule: 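Migration changed when robust z exceeds 2 or falls below -2 and mean nuclei number is at least 3300; otherwise not called changed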
Meaning of the calls: active = migration changed; inactive = no migration change, or too few cells
The deposit covers about 18,000 reagents; below is a random part of them. About 1,030 of all reagents (5.7%) were called active. 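Inactive calls also include pools with fewer than 3300 nuclei, whose migration was not assessed.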 The raw values are shown without normalisation. Unmarked entries are inactive. Further read-outs or replicates are left out here.

{"target":"FNIP1 (folliculin interacting protein 1)","migration robust z-score":1.75,"migration class with cell-count check":"migration z between -2 and 2; enough cells","nuclei per well, duplicate mean":4378}
{"target":"OR1E1 (olfactory receptor family 1 subfamily E member 1)","migration robust z-score":0.95,"migration class with cell-count check":"migration z between -2 and 2; enough cells","nuclei per well, duplicate mean":5738}
{"target":"SP5 (Sp5 transcription factor)","migration robust z-score":0.34,"migration class with cell-count check":"migration z between -2 and 2; enough cells","nuclei per well, duplicate mean":5378}
{"target":"PPARD (peroxisome proliferator activated receptor delta)","migration robust z-score":-0.13,"migration class with cell-count check":"migration z between -2 and 2; enough cells","nuclei per well, duplicate mean":5394}
{"target":"MTMR2 (myotubularin related protein 2)","migration robust z-score":-0.7,"migration class with cell-count check":"migration z between -2 and 2; enough cells","nuclei per well, duplicate mean":5141}
{"target":"GPN1 (GPN-loop GTPase 1)","migration robust z-score":-0.98,"migration class with cell-count check":"migration z between -2 and 2; enough cells","nuclei per well, duplicate mean":5970}
{"target":"CRKL (CRK like proto-oncogene, adaptor protein)","migration robust z-score":0,"migration class with cell-count check":"migration z between -2 and 2; enough cells","nuclei per well, duplicate mean":4796}

Continued; the last 2 above are carried over.
{"target":"GPN1 (GPN-loop GTPase 1)","migration robust z-score":-0.98,"migration class with cell-count check":"migration z between -2 and 2; enough cells","nuclei per well, duplicate mean":5970}
{"target":"CRKL (CRK like proto-oncogene, adaptor protein)","migration robust z-score":0,"migration class with cell-count check":"migration z between -2 and 2; enough cells","nuclei per well, duplicate mean":4796}
{"target":"TADA2A (transcriptional adaptor 2A)","migration robust z-score":0.86,"migration class with cell-count check":"migration z between -2 and 2; enough cells","nuclei per well, duplicate mean":5675}
{"target":"CARF (calcium responsive transcription factor)","migration robust z-score":-0.32,"migration class with cell-count check":"migration z between -2 and 2; enough cells","nuclei per well, duplicate mean":5290}
{"target":"KCTD3 (potassium channel tetramerization domain containing 3)","migration robust z-score":0.16,"migration class with cell-count check":"migration z between -2 and 2; enough cells","nuclei per well, duplicate mean":5170}
{"target":"HSPBAP1 (HSPB1 associated protein 1)","migration robust z-score":-0.03,"migration class with cell-count check":"migration z between -2 and 2; enough cells","nuclei per well, duplicate mean":5744}
{"target":"COG3 (component of oligomeric golgi complex 3)","migration robust z-score":-0.05,"migration class with cell-count check":"migration z between -2 and 2; enough cells","nuclei per well, duplicate mean":6700}
